Source: US20260184780A1

Experiments:
[1] = target: human PAR4 on isolated human platelets (human); assay: flow cytometry on isolated human platelets
[2] = target: human PAR4 on isolated human platelets (human); assay: flow cytometry on isolated human platelets, 5A.RC3 at 10 ug/mL
[3] = target: human PAR4 on isolated human platelets (human); assay: flow cytometry on isolated human platelets, delta geometric mean fluorescence
[4] = target: human PAR4 on isolated human platelets (human); assay: flow cytometry against an isotype control

Measured: binding

B1: 5A.RC3.F10b.H4b (antibody, IgG2a, V domains shown)
VH: QVQLVESGGGVVQPGRSLRLSCAASGFTLSNYGMHWVRQAPGKGLEWVSVIWYDGSNKHYADSVKGRFTISRDNSKNTLYLQMNSLRAEDTAVYYCARESIVEVLPPFDYWGQGTLVTVSS
VL: KIVLTQSPGTLSLSPGERVTLSCRASQRVRNNYLAWFQQKPGQAPRLFIYGASSRATGIPDRFSGSGSGTDFIFTISRLEPEDFAVYYCQQYGNSYTFGQGTKLEIK
binds: all assays above

Results are given in words; binding and its absence hold for the method and conditions named. Binding can be weak; no strength is given.
